Laboratory results from patent publication US8614188B2 (University of Massachusetts, priority 2006, dated 2013).

Assay: peptide made by a vendor
Conditions: whole synthesis, HPLC

H-GNLVAICLGAV-OH
purity (crude or final not stated): 90%
